Assay results reported in paper PMC12718634.

Amino acid sequences for entries named in this document (tags omitted).
UniProt P49023: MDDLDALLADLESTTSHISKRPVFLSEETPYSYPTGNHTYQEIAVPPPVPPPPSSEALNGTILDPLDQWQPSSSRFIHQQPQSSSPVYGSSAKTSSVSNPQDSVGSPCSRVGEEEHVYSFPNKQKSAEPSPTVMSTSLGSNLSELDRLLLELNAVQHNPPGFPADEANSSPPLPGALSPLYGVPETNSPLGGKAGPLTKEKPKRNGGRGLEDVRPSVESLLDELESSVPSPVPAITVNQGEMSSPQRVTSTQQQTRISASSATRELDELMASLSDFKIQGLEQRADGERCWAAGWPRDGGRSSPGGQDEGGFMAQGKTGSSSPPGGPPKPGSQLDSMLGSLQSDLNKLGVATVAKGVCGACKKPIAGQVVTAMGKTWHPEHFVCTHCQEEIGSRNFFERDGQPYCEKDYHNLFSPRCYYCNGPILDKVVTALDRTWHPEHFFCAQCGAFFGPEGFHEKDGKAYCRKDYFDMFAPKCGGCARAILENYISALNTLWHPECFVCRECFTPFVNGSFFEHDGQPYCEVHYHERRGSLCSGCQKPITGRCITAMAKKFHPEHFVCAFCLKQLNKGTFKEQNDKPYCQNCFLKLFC

B1: Shroom4 (protein, UniProt Q1W617 1-1475)
chain: MESRPGSFQYVPVQLQGGAPWGFTLKGGLEHCEPLTVSKIEDGGKAALSQKMRTGDELVNINGTPLYGSRQEALILIKGSFRILKLIVRRRNTPVSRPHSWHVAKLLEGCPDVATTMHFPSEAFSLSWHSGCNTSDVSVQWCPLSRHCSTEKSSSIGSMESLEQPGQPTYEGHLLPIDQNMYPSQRDSAYSSFSASSNASDCALSLKPEEPPSTDCVMPGPGPIKVTDDQANVSENSGSSHSTSEDHVTSTSHASSYSDEGHHSGPAKMARGPPEPPVRSDSLPASRAQLLNGEQHRASEPVDSLPQKEKPGLETVLPPRSSNQFCCLSGQDQVTDEDHQNCELSKPSESSQDDCEHLLIEDSSKALDSPKAHDKGSNKEFGLLKEASADLANTLNFGAIPHLRGTMEHRHSAPEQLLASHLQQVHLDSRGSKGMELPIGQDGHQWTVSPLHNNPKGKKSPSLPTGGTQDQTRKERKTTPLDDKLMASVHQSQSDVLLGEVDGHPNRAGRASSDLTSQQPSATCSSVQQTRDFLSAHKIVDHTEASEEGDNEPKECGRLGGRRSGGPRGRSIQNRRRSERFATNLRNEIQRRKAQLQKSKGPLSQLCDTNEAVEETQEPPESPPLSASNASLLPSYKNVPSPGDKVFNKSMILRARSSECLSQASESSKARGGVEGRMSPGQRSGQSSLALNTWWKASDSSTLDTEKANAHHGVCRGHWRWSPEHNAQPQVALSTEAPSNPDDSKELKTSTPQAGEEAVLMPFADRRKFFEESSKSLSTSHLPGLTTHNNKPFIQRQKPIDQNFQSVSYRDLRCHPLDQSYHSADQSYHAADQSYHSLSPLQSETPTYPECFATKGRDNSLCCKPVHHGDCDYHRTCSHPCSAQGTVRHDPCICCSGEICPALLKRNLLPKCHNCRCHHHQCIRCTGCCHGPQHSAHEDSSMAPGNAWKSRKAAIQEFPVDKWKPITGNRKTSHSGREMAHSKAGFSLSTPFRPCIENPALDLSNYRAVSSLDILGDFKRASNKPEESSVYEDENSVASMPRPLRSRAFSESHISLEPQNTQAWGKHQRESFSKGSETQPDTLGARKKVFPPPRPPPPNWEKYRLFRAAQLQQQQQQQQQQQQQQRCEEEEEKEQEEEGEKEEDLPPQYFSSELTGSCAPNTEEQPQSLKMGHQEASRQGSQSLQEQEAFALHPSNFVPPVRGCTVPQPEKAQHPCYYGTHGLWRTTEQEATVTPKQEFQHFSPPKGASGIPTSYSAYYNISVAKAELLNKLKQQPEMAEAGLGEEGVDYELAQKKIQLIESISRKLSVLREAQRGLLDDINANAALGEEVEANLKAVCKSNEFEKYHLFIGDLDKVVNLLLSLSGRLARVENALNSIDSESNQEKLVLIEKKQQLTNQLADAKELKEHVDGREKLVFGMVSRYLPQDQLQDYQHFVKMKSALIIEQRELEEKIKLGEEQLKCLKESLHLGPSNF
B2: Shroom2 (protein, UniProt A2ALU4 1-1481)
chain: MEGAEPRARPERLAEAEAPATDGVRLVEVQLSGGAPWGFTLKGGREHGEPLVITKIEEGSKAAAVDKLLAGDEIVAINDVSLSGFRQEAICLVKGSHKTLKLVVKRKSDPSWRPHSWHATKYFDVHPEPAASLFLNTSGSPSWKSQHQASSSSHDLSGSWEHTSLQRTSDHFSSMGSIDSLDHSSQLYPSGHLSSAKSNSSIDHLGGHSKRDSAYGSFSTCSSTPDHTLPKADASSTENILYKVGLWEASRPGSSRQSQSTGDPQGLQDRPSCFIPRVPGNSSKSPRPEDNVEPKIATHGRSNFGPVWYVPDKKKAPSPPPLGLPLRSDSFSVAARGHEKARGPPFSDLASMQHFITLPHVQPRGDHRMETTDRQWKLTHLSSGKEIGNVGYQSEGHLDCRWLCSDDRAGRPSGPPGRLQFSDVHFLKSYHGSQHQQQCSDESPRAPSSPRELLHITPGGGLQEPPEPSQDDNPTQVRWPGSAHQKLDDRGRSHYFPGSLRQPVQGSAQVVIPRGDYWHSDTTPVDLEYPLLRPVGQRTYLQQHEETPASHEKEGYHQLNAGIEGCCSGIQEPPRASRTVRTGLQCPSNDFKLVDGESGRISRQRTPMLHSLTQDGTWRPGNSKDCGNDKPPLFDAQVGKPTRRSDRFATTLRNEIQMRRAKLQKSKSTVTLAGDSEAEDCAGDWRADVGAVPEGSFPSTYKEHLKEAQTRVLKATSFQRRDLDPTPADQYSGPSEHRTFDHSASSSLSSFPGEPDSAPRFCETGLAKAPSSGVGVPHVLRIGGRKRFTAEQKLKSYSEPEKINEVGLSGDHRPHPTVRTPEDTVGTFADRWKFFEETSKSLLQKAGHRQVHCGLPREKAERPQTGHHECESTEPWFQKRSLATSCGEILSDRKVEKASEKLNPPRRLGTFAEYQASWKEQKKPLEARSSGRYHSADDILDAGLDQQQRPQYIHERSRSSPSTDHYSQEVPVEPNRQAEDSGDHKEAILCTLQAEEGCSAPSAQPQDSQHVNEDTTFPQPETQLSSKCQHLQTSAMETSRSPSPQFAPQKLTDKPPLLIHEDNSARIERVMDNNTTVKMVPIKIVHSESQPEKESRQSLACPAELPPLPSGLERDQIKTLSTSEQCYSRFCVYTRQEVEAPHRARPPEPRPPSTPAPPVRDSCSSPPSLNYGKAKEKTMDDLKSEELAREIVGKDKSLADILDPSVKIKTTMDLMEGIFPKDEYLLEEAQQRRKLLPKVPLPRVTEDKKQDPGMPGVVSLATNSTYYSTSAPKAELLIKMKDLQEPEEYSAGDLDHDLSVKKQELIDSISRKLQVLREARESLLEDIQANNALGDEVEAIVKDVCKPNEFDKFRMFIGDLDKVVNLLLSLSGRLARVENALNNLDDNPSPGDRQSLLEKQRVLTQQHEDAKELKENLDRRERIVFDILATYLSEENLADYEHFVKMKSALIIEQRELEDKIHLGEEQLKCLFDSLQPERSK
B3: zyxin (protein, UniProt Q62523 1-564)
chain: MAAPRPPPAISVSVSAPAFYAPQKKFAPVVAPKPKVNPFRPGDSEPPVAAGAQRAQMGRVGEIPPPPPEDFPLPPPPLIGEGDDSEGALGGAFPPPPPPMIEEPFPPAPLEEDIFPSPPPPLEEEGGPEAPTQLPPQPREKVCSIDLEIDSLSSLLDDMTKNDPFKARVSSGYVPPPVATPFVPKPSTKPAPGGTAPLPPWKTPSSSQPPPQPQAKPQVQLHVQPQAKPHVQPQPVSSANTQPRGPLSQAPTPAPKFAPVAPKFTPVVSKFSPGAPSGPGPQPNQKMVPPDAPSSVSTGSPQPPSFTYAQQKEKPLVQEKQHPQPPPAQNQNQVRSPGGPGPLTLKEVEELEQLTQQLMQDMEHPQRQSVAVNESCGKCNQPLARAQPAVRALGQLFHITCFTCHQCQQQLQGQQFYSLEGAPYCEGCYTDTLEKCNTCGQPITDRMLRATGKAYHPQCFTCVVCACPLEGTSFIVDQANQPHCVPDYHKQYAPRCSVCSEPIMPEPGRDETVRVVALDKNFHMKCYKCEDCGKPLSIEADDNGCFPLDGHVLCRKCHSARAQT

Target: GFP-BirA*-Paxillin (UniProt P49023)
Assay: proximity labelling; Bio-ID: GFP-BirA*-Paxillin as bait, stably expressed in B16-F1 control and Cyri-b KO cells on laminin; biotin or DMSO for 16 h; biotinylated proteins captured on NeutrAvidin agarose, on-bead digestion, mass spectrometry (label-free quantification)

binding, binds:
B1
B2
B3

These are yes or no findings as the source states them, for the method shown. In cells and extracts the contact can be indirect. Here binding means that the protein was enriched with, or labelled near, the bait; the list need not be complete.
